Measured values: patent publication US9598412B2, “Spiroindoline compounds for use as anthelminthics” (Intervet, Inc., priority 2010, dated 2017)
Some of these results come from one statement about several compounds together.

Test system: Haemonchus contortus
Assay: Efficacy against Haemonchus contortus in jirds
Assay type: in vivo
Details: jirds (Meriones unguiculatus), necropsy three days after treatment
Experimental: Compounds according to this invention (numbers refer to the compound number in Table 1) were tested in vivo using Haemonchus contortus in jirds (Meriones unguiculatus). The jirds were orally infected with approximately 750-3.000 third-stage larvae of Haemonchus contortus. Ten days after infection, the jirds in the treatment groups were treated once either orally or subcutaneously with compounds at a dose of 10 mg or 50 mg per kg bodyweight. Three days after treatment, the jirds were necropsied, and the larvae burden in the stomach was determined. During the study no side-effects in jirds were observed. The efficacy was defined as the reduction of the mean larvae count in the infected jirds of the treatment group in comparison to the infected jirds in an untreated control group (negative control).

[1] = treated once orally at 50 mg/kg bw ten days after infection
[2] = treated once subcutaneously at 10 mg/kg ten days after infection
[3] = treated once orally at 10 mg/kg ten days after infection

Structure (SMILES)	reduction of the Haemonchus contortus count (mean larvae count in stomach vs untreated control group) [2]	reduction of the Haemonchus contortus count (mean larvae count in stomach vs untreated control group) [3]	other results
O=C(c1ccnc(Cl)c1)N1CC2(CCN(CC=Cc3ccc(C(F)(F)F)cc3)CC2)c2cc(Cl)ccc21 (mixture of isomers) [Compound 2]			reduction of the Haemonchus contortus count (mean larvae count in stomach vs untreated control group) [1]: at least 50%
O=C(c1ccnc(Cl)c1)N1CC2(CCN(CC=Cc3ccc(Cl)cc3)CC2)c2cc(Cl)ccc21 (mixture of isomers) [Compound 4]			reduction of the Haemonchus contortus count (mean larvae count in stomach vs untreated control group) [1]: at least 50%
O=C(c1ccnc(Cl)c1)N1CC2(CCN(C/C=C/c3ccc(F)cc3)CC2)c2cc(Cl)ccc21 [Compound 1]			reduction of the Haemonchus contortus count (mean larvae count in stomach vs untreated control group) [1]: at least 50%
Cc1ccc(/C=C/CN2CCC3(CC2)CN(C(=O)c2ccnc(Cl)c2)c2ccc(Cl)cc23)cc1 [Compound 3]			reduction of the Haemonchus contortus count (mean larvae count in stomach vs untreated control group) [1]: at least 50%
O=C(c1ccnc(Cl)c1)N1CC2(CCN(C/C=C/c3ccc(F)cc3F)CC2)c2cc(Cl)ccc21 [Compound 5]			reduction of the Haemonchus contortus count (mean larvae count in stomach vs untreated control group) [1]: at least 50%
Cc1cc(C(=O)N2CC3(CCN(C/C=C/c4ccc(Cl)cc4Cl)CC3)c3cc(Cl)ccc32)cc(Cl)n1 [Compound 36]			reduction of the Haemonchus contortus count (mean larvae count in stomach vs untreated control group) [1]: at least 50%
Cc1cc(C(=O)N2CC3(CCN(C/C=C/c4ccccc4F)CC3)c3cc(Cl)ccc32)cc(Cl)n1 [Compound 37]			reduction of the Haemonchus contortus count (mean larvae count in stomach vs untreated control group) [1]: at least 50%
O=C(c1cc(Cl)nc(Cl)c1)N1CC2(CCN(C/C=C/c3c(F)c(F)c(F)c(F)c3F)CC2)c2cc(Cl)ccc21 [Compound 40]			reduction of the Haemonchus contortus count (mean larvae count in stomach vs untreated control group) [1]: at least 50%
O=C(c1ccnc(Cl)c1)N1CC2(CCN(C/C=C/c3ccc(F)c(F)c3)CC2)c2cc(Cl)ccc21 [Compound 41]	at least 50%		
O=C(c1ccnc(C(F)(F)F)c1)N1CC2(CCN(C/C=C/c3ccc(F)cc3F)CC2)c2cc(F)ccc21 [Compound 43]		at least 50%	
Cc1cc(C(=O)N2CC3(CCN(C/C=C/c4ccc(F)cc4)CC3)c3cc(Cl)ccc32)cc(C)n1 [Compound 46]		at least 50%	
Cc1cc(C(=O)N2CC3(CCN(C/C=C/c4ccc(F)cc4F)CC3)c3cc(Cl)ccc32)cc(C)n1 [Compound 48]	at least 50%		
O=C(c1ccnc(Cl)c1)N1CC2(CCN(C/C=C/c3ccc(F)cc3)CC2)c2cc(C(F)(F)F)ccc21 [Compound 49]		at least 50%	
O=C(c1ccnc(Cl)c1)N1CC2(CCN(C/C=C/c3ccc(C(F)(F)F)cc3)CC2)c2cc(C(F)(F)F)ccc21 [Compound 50]		at least 50%	
O=C(c1ccnc(Cl)c1)N1CC2(CCN(C/C=C/c3ccc(Cl)cc3F)CC2)c2cc(Cl)ccc21 [Compound 51]	at least 50%		
O=C(c1ccnc(F)c1)N1CC2(CCN(C/C=C/c3ccc(Cl)c(Cl)c3)CC2)c2cc(Cl)ccc21 [Compound 54]	at least 50%		
O=C(c1ccnc(Cl)c1)N1CC2(CCN(C/C=C/c3cccc(Cl)c3)CC2)c2cc(Cl)ccc21 [Compound 57]			reduction of the Haemonchus contortus count (mean larvae count in stomach vs untreated control group) (treated once subcutaneously at 50 mg/kg bw ten days after infection): at least 50%
O=C(c1cc(Cl)nc(Cl)c1)N1CC2(CCN(C/C=C/c3c(F)cccc3Cl)CC2)c2cc(Cl)ccc21 [Compound 58]		at least 50%	
O=C(c1ccnc(Cl)c1)N1CC2(CCN(C/C=C/c3ccc(Cl)c(F)c3)CC2)c2cc(Cl)ccc21 [Compound 59]	at least 50%		
O=C(c1ccnc(F)c1)N1CC2(CCN(C/C=C/c3ccc(Cl)cc3)CC2)c2cc(Cl)ccc21 [Compound 62]	at least 50%		
Cc1ccc(/C=C/CN2CCC3(CC2)CN(C(=O)c2ccnc(C)c2)c2ccc(Cl)cc23)cc1 [Compound 63]	at least 50%		
Cc1cc(C(=O)N2CC3(CCN(C/C=C/c4c(F)c(F)c(F)c(F)c4F)CC3)c3cc(Cl)ccc32)cc(Cl)n1 [Compound 64]		at least 50%	

Structure (SMILES)	reduction of the Haemonchus contortus count (mean larvae count in stomach vs untreated control group) [2]	reduction of the Haemonchus contortus count (mean larvae count in stomach vs untreated control group) [3]	other results
N#Cc1ccc(/C=C/CN2CCC3(CC2)CN(C(=O)c2ccnc(Cl)c2)c2ccc(F)cc23)cc1 [Compound 66]		at least 50%	
O=C(c1ccnc(Cl)c1)N1CC2(CCN(C/C=C/c3ccc(Cl)cc3Cl)CC2)c2cc(F)ccc21 [Compound 67]	at least 50%		
O=C(c1ccnc(Cl)c1)N1CC2(CCN(C/C=C/c3ccc(Cl)cc3Cl)CC2)c2cc(C(F)(F)F)ccc21 [Compound 68]		at least 50%	
O=C(c1ccnc(Cl)c1)N1CC2(CCN(C/C=C/c3ccc(F)cc3F)CC2)c2cc(F)ccc21 [Compound 69]	at least 50%		
O=C(c1cc(Cl)nc(Cl)c1)N1CC2(CCN(C/C=C/c3ccccc3F)CC2)c2cc(F)ccc21 [Compound 70]	at least 50%		
O=C(c1ccnc(Cl)c1)N1CC2(CCN(C/C=C/c3ccc(C(F)(F)F)c(F)c3)CC2)c2cc(Cl)ccc21 [Compound 72]		at least 50%	
O=C(c1ccnc(Cl)c1)N1CC2(CCN(C/C=C/c3cccc([N+](=O)[O-])c3)CC2)c2cc(Cl)ccc21 [Compound 75]	at least 50%		
S=C(c1ccnc(Cl)c1)N1CC2(CCN(C/C=C/c3ccc(Cl)cc3)CC2)c2cc(Cl)ccc21 [Compound 76]		at least 50%	
Cc1ccc2c(c1)C1(CCN(C/C=C/c3ccc(F)cc3F)CC1)CN2C(=O)c1ccnc(Cl)c1 [Compound 78]	at least 50%		
Cc1ccc2c(c1)C1(CCN(C/C=C/c3ccc(Cl)cc3Cl)CC1)CN2C(=O)c1ccnc(Cl)c1 [Compound 79]	at least 50%		
Cc1ccc2c(c1)C1(CCN(C/C=C/c3ccc(Cl)c(Cl)c3)CC1)CN2C(=O)c1ccnc(F)c1 [Compound 80]	at least 50%		
O=C(c1ccnc(Cl)c1)N1CC2(CCN(C/C=C/c3cccc(F)c3)CC2)c2cc(F)ccc21 [Compound 81]		at least 50%	
O=C(c1ccnc(Cl)c1)N1CC2(CCN(C/C=C/c3cc(F)cc(F)c3)CC2)c2cc(C(F)(F)F)ccc21 [Compound 82]		at least 50%	
O=C(c1ccnc(Cl)c1)N1CC2(CCN(C/C=C/c3cc(F)cc(F)c3)CC2)c2cc(F)ccc21 [Compound 83]	at least 50%		
O=C(c1ccnc(Cl)c1)N1CC2(CCN(C/C=C/c3c(F)cccc3F)CC2)c2cc(F)ccc21 [Compound 84]	at least 50%		
Cc1ccc2c(c1)C1(CCN(C/C=C/c3ccc(Cl)cc3)CC1)CN2C(=O)c1ccnc(Cl)c1 [Compound 85]		at least 50%	
Cc1ccc2c(c1)C1(CCN(C/C=C/c3ccc(F)cc3)CC1)CN2C(=O)c1ccnc(Cl)c1 [Compound 86]	at least 50%		
Cc1ccc2c(c1)C1(CCN(C/C=C/c3ccc(OC(F)(F)F)cc3)CC1)CN2C(=O)c1ccnc(Cl)c1 [Compound 88]	at least 50%		
Cc1ccc(/C=C/CN2CCC3(CC2)CN(C(=O)c2ccnc(Cl)c2)c2ccc(C)cc23)cc1 [Compound 95]		at least 50%	
COc1ccc(/C=C/CN2CCC3(CC2)CN(C(=O)c2ccnc(Cl)c2)c2ccc(C)cc23)cc1 [Compound 96]	at least 50%		
Cc1ccc2c(c1)C1(CCN(C/C=C/c3ccc(C(F)(F)F)cc3)CC1)CN2C(=O)c1ccnc(Cl)c1 [Compound 97]	at least 50%		
Cc1ccc2c(c1)C1(CCN(C/C=C/c3ccccc3F)CC1)CN2C(=O)c1ccnc(Cl)c1 [Compound 98]		at least 50%	
